The campaign covered roughly 140,000 compounds. About 4,300 (3.1%) were called active. The shares of active, inactive and inconclusive entries below differ from those in the screen.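 Rule for the calls: active = readout at or below -70, meaning at least 70% loss of cells showing the perinucleolar compartment, a nuclear body marking cancer cells; inconclusive = readout between -30 and a set limit; inactive = the rest.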
Assay: High Content Assay for Compounds that inhibit the Assembly of the Perinucleolar Compartment;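 note: plate controls were DMSO wells for no effect and camptothecin positive control wells for full effect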
Details: PC3M PTB-GFP, PNC prevalence imaging, 16 h; at 10 µM; active compounds read low
Procedure, shortened: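 Read-out is percentage of cells bearing a perinucleolar compartment, from automated 20x imaging of fixed, Hoechst-stained PC3M PTB-GFP cells. Cells were seeded 4 h, then exposed 16 h to compound (23 nl of library stock) in duplicate plates.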

Row | SMILES | activity change (PNC), negative = inhibition
1 | COc1cc2c(C)nc3onc(-c4ccccc4)c3c2cc1OC | inconclusive: -50.2%
2 | COc1ccc(CCNC(=O)CSc2nnc(NC(C)=O)s2)cc1OC | inactive: 0.32%
3 | Nn1c(SCC(=O)Nc2ccccc2F)nnc1-c1cccnc1 | inconclusive: -42.1%
4 | CCC1CCCCN1C(=O)c1cccc(S(=O)(=O)Nc2cc(C(F)(F)F)ccc2Cl)c1 (stereo unspecified) | inconclusive: -65.6%
5 | Cc1cc2nc(C3CCN(CC4COc5ccccc5O4)CC3)[nH]c2cc1C (stereo unspecified) | active: -82.3%
6 | O=C(Cc1ccc2c(c1)OCCO2)c1c(O)cc(O)cc1O | inactive: 1.54%
7 | COc1cc(OC)cc(C(=O)N[C@H](C(=O)Nc2nc3c(s2)CCCC3)C(C)C)c1 | inconclusive: -43.5%
8 | CC(NC(=O)c1cccc(F)c1)C(c1cccs1)N1CCN(C)CC1 (stereo unspecified) | inconclusive: -50%
9 | CC(NC(=O)C(C)N1C(=O)C2C3CC(C(Br)C3Br)C2C1=O)c1ccccc1 (stereo unspecified) | inconclusive: -30.8%
10 | COc1cccc2c(C)c(C(=O)O)[nH]c12 | active: -100%
11 | COC(=O)CCN(C(=O)C1C2CC3CC(C2)CC1C3)c1ccccn1 (stereo unspecified) | inactive: 0.404%
12 | COCCCN1C(=O)C(=O)/C(=C(/O)c2ccc(OC(C)C)c(C)c2)C1c1ccncc1 (stereo unspecified) | inactive: -28.7%
13 | Cc1nc2ccc(S(=O)(=O)NC(C(=O)N3CCCC3)C(C)C)cc2s1 (stereo unspecified) | inconclusive: -38.3%
14 | Cc1nn(C)c(C(=O)N2CCN(C(=O)c3ccco3)CC2)c1Br | inconclusive: -42.3%
15 | Cc1c(C(=O)O)cccc1N1C(=O)Nc2ccccc2N1O | inconclusive: -59.4%
16 | [O-]/[N+](=C\c1ccncc1)c1ccc(Br)cc1 | inconclusive: -77.6%
17 | CN1N=C(C(=O)N2CCN(c3ccc([N+](=O)[O-])cc3)CC2)CCC1=O | active: -94.3%
18 | CCC1Oc2ccccc2N(CC(=O)NCCCN2CCCCC2CC)C1=O (stereo unspecified) | inconclusive: -55%
19 | CCOc1ccc(-n2c(SCC(=O)Nc3cc(C)on3)nc3c([nH]c4ccccc43)c2=O)cc1 | inconclusive: -52.3%
20 | COc1ccc(NC(=O)CSc2n[nH]c(N)n2)c([N+](=O)[O-])c1 | inconclusive: -44.8%
21 | N#CC(=C1CCCC1)c1nc(-c2ccc(Cl)cc2)cs1 | inconclusive: -36.4%
22 | COc1ccc(CC(=O)Nc2nc(-c3cccnc3)cs2)cc1 | inconclusive: -77.3%
23 | CCOc1ccc(N2C(=O)CSC2c2ccncc2)cc1 (stereo unspecified) | active: -100%

Row | SMILES | activity change (PNC), negative = inhibition
24 | Cc1nn(-c2ccccc2)c2sc(C(=O)C(C#N)c3ccccn3)cc12 (stereo unspecified) | inconclusive: -47%
25 | O=C(Nc1cccc(S(=O)(=O)N2CCOCC2)c1)c1cn(-c2ccccc2)nc1-c1ccccc1 | inactive: -24.4%
26 | CCC(=O)N=c1sc2c(C)cc(C)cc2n1CC(=O)OC | inactive: 25.5%
27 | Oc1c(Cl)cc(Cl)cc1/C=N/c1nccs1 | inactive: 1.83%
28 | O=C(NCc1cccnc1)c1cccc(Cl)c1 | inconclusive: -38%
29 | CC(C)Sc1cc(N2CCCC2)nc(-c2ccccc2Cl)n1 | inconclusive: -30.1%
30 | COc1ccccc1NC(=O)C1CCCN(S(=O)(=O)c2cnc[nH]2)C1 (stereo unspecified) | inactive: 8.49%
31 | CCOC(=O)CSc1nc2ccccc2c(=O)n1CC1CCCC1 | inconclusive: -37.9%
32 | Cn1c(=O)c2c(ncn2CCCc2ccccc2)n(C)c1=O | active: -88.7%
33 | CC(=O)N1CCN(Cc2nc3cc(NC(=O)Cn4nc(C)c5ccccc5c4=O)ccc3n2C)CC1 | inconclusive: -46.4%
34 | COC(=O)C(NC(=O)c1ccccc1)=C1C=C(C)OC(C)=C1 | inconclusive: -48.1%
35 | COc1ccccc1CNC(=O)C1CC(c2cccc([N+](=O)[O-])c2)=NO1 (stereo unspecified) | inconclusive: -41.2%
36 | CCOC(=O)CCNCC1COc2ccccc2O1 (stereo unspecified) | active: -92.5%
37 | CCOc1ccc2nc(NC(=O)c3cccnc3)sc2c1 | active: -108%
38 | CCOC(=O)C1=C(O)/C(=C/N(C)C)N=C1C | inconclusive: -52.8%
39 | COc1ccc(CC(=O)N(c2ccccc2)c2nc(C)cs2)cc1 | inconclusive: -35.1%
40 | N#CCSc1nc2ccc(N3CCOCC3)cc2c(=O)n1CCc1ccccc1 | inconclusive: -34.9%
41 | O=S(=O)(Nc1nc2ccccc2nc1Cl)c1ccc(Cl)cc1 | inconclusive: -32.8%
42 | O=C(CC12CC3CC(C1)CC(CC(=O)N1CCCC1)(C3)C2)N1CCCC1 | inconclusive: -59.7%
43 | O=C(Nc1cccc(-c2nc3cccnc3s2)c1)c1ccco1 | inactive: -6.81%
44 | COc1ccc(CCNC(=O)CCNS(=O)(=O)c2ccc3c(c2)CCN3C(C)=O)cc1OC | inconclusive: -50.6%
45 | O=C(N/N=C/c1cc2cc3c(cc2nc1Cl)OCCO3)c1ccccc1O | inconclusive: -33.8%
46 | Cc1cccc(OCC(=O)Nc2ccc(S(=O)(=O)N3CCN(C)CC3)cc2)c1 | inconclusive: -75.1%

Some values from the list:
In activity change (PNC), negative = inhibition, O=C(N/N=C/c1cc2cc3c(cc2nc1Cl)OCCO3)c1ccccc1O reads inconclusive: -33.8%
In activity change (PNC), negative = inhibition, COc1ccc(CC(=O)N(c2ccccc2)c2nc(C)cs2)cc1 reads inconclusive: -35.1%

Reference: PubChem BioAssay AID2417 (National Center for Advancing Translational Sciences (NCATS), 2010)
